Data: PubChem BioAssay AID1688 (National Center for Advancing Translational Sciences (NCATS), 2009)
Screen size: about 220,000 compounds; about 2,400 (1.1%) were called active. The shares of active, inactive and inconclusive entries below differ from those in the screen. Calls follow the shape of the dose curve; as a rule, active = well fitted inhibition curve with a large enough effect; inconclusive = small, poorly fitted or top-dose-only effect, or effect the other way; inactive = no such curve, though single readings can be large or run the other way. Where the call is inconclusive, the potency comes from a doubtful curve fit.

Experiment: qHTS Multiplex Assay to Identify Dual Action Probes in a Cell Model of Huntington: Aggregate Formation (GFP); also: nearly all actives have a fitted effect of over 60% in size
Conditions: PC12 HttQ103-GFP aggregates, Acumen cytometry, 40 h; activity change, negative = inhibition: at 46.1 µM (top of the series) unless noted
Outline: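 Read-out: GFP aggregate count by laser scanning cytometer (488 nm excitation, 500-530 nm emission, 1–25 µm objects >6 SD above background). Cells: PC12, inducible HTTex1-Q103-GFP, 100 nM tebufenozide; compounds titrated.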
% is scaled to controls: 0 for no effect and ±100 for the full control effect; potency is read from the fitted curve at half-maximal effect.

SMILES	Potency	activity change, negative = inhibition
CCOC(=O)CSc1ccc2nnc(CCNS(=O)(=O)c3ccc(C)cc3)n2n1	inconclusive: 6.31 µM [activator, single point]	–
CSc1ncccc1C(=O)OCC(=O)c1ccc(Br)s1	–	inactive: 15.7%
CCn1ncc(-c2cc(C(=O)O)no2)c1C	inconclusive: 2.82 µM [inhibitor, single point]	–
CCc1ccc2[nH]c(=O)c(CN(Cc3ccccc3OC)C(=O)Nc3ccccc3OC)cc2c1	inconclusive: 20 µM [inhibitor, single point]	–
O=C(N/N=C/C=C/c1ccco1)c1cccs1	inconclusive: 20 µM [activator, single point]	–
CC1CCCN(c2nc3ccccc3nc2C(C#N)S(=O)(=O)c2cccs2)C1 (stereo unspecified)	inconclusive: 14.1 µM [inhibitor, single point]	–
CC(C)OCCCNC(=O)C(=O)N/N=C/c1ccc(OCc2ccccc2)cc1	–	inactive: -8.06% [at 9.22 µM]
CN(C)CCN(Cc1ccccc1)c1ccccn1	inactive	–
Cc1ccccc1Oc1nc(-c2ccccn2)nc2ccccc12	–	inactive: -18.1% [at 9.22 µM]
Cc1ccc(C(C)C)cc1S(=O)(=O)NCc1cccnc1	inconclusive: 35.5 µM [inhibitor, single point]	–
O=C(Nc1ccc(N2CCOCC2)c(Cl)c1)c1ccc(Cl)cc1	inconclusive: 35.5 µM [inhibitor, single point]	–
Cc1cc(C(=O)CSc2nnc(-c3cccnc3)n2-c2ccccc2F)c(C)n1CC1CCCO1 (stereo unspecified)	inconclusive: 6.31 µM [activator, partial curve]	–
CS(=O)(=O)c1nc(-c2ccccc2)cc(C(F)(F)F)n1	active: 4.47 µM	–
Cc1nc(-c2cn[nH]c2-c2ccc(O)cc2O)cs1	inconclusive: 0.562 µM [inhibitor, full curve, poor fit]	–
COC(=O)N[C@H](CC(C)=O)c1ccccc1	–	inactive: -2.35%
CCCc1ccc(/C=C2\C(=O)c3ccccc3C(O)=C2C(=O)OCC)cc1	inconclusive: 31.6 µM [activator, single point]	–
O=C(c1ccc(F)cc1F)N1CCN(c2n[nH]c(=O)[nH]c2=O)CC1	inconclusive: 5.62 µM [inhibitor, single point]	–
CCNC(=S)NNC(=O)c1ccc(OC(F)F)cc1	inconclusive: 0.562 µM [activator, partial curve, poor fit]	–
COc1ccc(CN2CCN(C(=O)c3ccc(-c4ccccc4)cc3)CC2)c(OC)c1OC	inconclusive: 35.5 µM [inhibitor, single point]	–
CCOC(=O)c1c(C)[nH]c(C(=O)C(C)Sc2ccc(Cl)cc2)c1C (stereo unspecified)	inconclusive: 35.5 µM [inhibitor, single point]	–
CC(=O)N1CCc2cc(C(=O)CN3CCN(c4cccc(Cl)c4)CC3)ccc21	inconclusive: 5.62 µM [activator, full curve]	–
Cc1ccc(C(=O)NCc2ccccc2)c(F)c1F	inconclusive: 0.562 µM [activator, full curve, poor fit]	–
O=C(NC1CCCC1)C(c1ccncc1)N(Cc1ccco1)C(=O)c1ccc(-c2ccccc2)[nH]1 (stereo unspecified)	inconclusive: 35.5 µM [inhibitor, single point]	–
Cc1ccc(Oc2c(C(N)=O)cc([N+](=O)[O-])cc2[N+](=O)[O-])cc1	inconclusive: 35.5 µM [inhibitor, single point]	–

2 neighbouring compounds from above, quoted:
SMILES	Potency	activity change, negative = inhibition
CSc1ncccc1C(=O)OCC(=O)c1ccc(Br)s1	–	inactive: 15.7%
CCn1ncc(-c2cc(C(=O)O)no2)c1C	inconclusive: 2.82 µM [inhibitor, single point]	–

Later entries

SMILES	Potency	activity change, negative = inhibition
COc1ccc(NC(=O)c2cccc(NC(=O)C3C4CC5OC(=O)C3C5C4)c2)c(OC)c1 (stereo unspecified)	inconclusive: 0.562 µM [inhibitor, full curve, poor fit]	–
Cc1cc(F)ccc1S(=O)(=O)Nc1ncnc2scc(-c3ccc(F)cc3)c12	inconclusive: 7.94 µM [inhibitor, partial curve]	–
O=C(c1ccccc1[N+](=O)[O-])N1CCN(Cc2ccc3c(c2)OCO3)CC1	inconclusive: 31.6 µM [inhibitor, single point]	–
O=C(CC(=O)c1ccccc1O)c1ccc(F)cc1	inconclusive: 31.6 µM [inhibitor, single point]	–
O=C(/C=C/c1ccccc1Cl)Nn1cnc2ccccc2c1=O	inconclusive: 6.31 µM [inhibitor, single point]	–
O=C1C(=O)c2ccc(-c3ccccc3)cc2-c2ccccc21	active: 4.47 µM	–
C=CC[n+]1ccc(/C=C2\C=Cc3cc(C)ccc3N2CC)c2ccccc21	active: 2.24 µM	–
O=C(CCCn1c(SCC(=O)c2ccccc2)nc2ccccc2c1=O)NCC1CCCO1 (stereo unspecified)	inconclusive: 2.51 µM [activator, full curve]	–
O=S(=O)(N/N=C/c1c(F)cccc1Cl)c1ccccc1	inconclusive: 25.1 µM [inhibitor, single point]	–
C=CSc1sc(Cl)c(N2CCOCC2)c1[N+](=O)[O-]	–	inactive: 3.52% [at 9.22 µM]
COc1ccc(C(C#N)Nc2ccccc2)cc1 (stereo unspecified)	–	inactive: 3.89% [at 9.22 µM]
O=C(NCc1ccccc1)/C(=C/c1ccc(OC(F)F)cc1)c1ccccc1	inconclusive: 22.4 µM [inhibitor, single point]	–
CCOCCc1nnc(NC(=O)Cc2c(F)cccc2Cl)s1	inconclusive: 2 µM [activator, partial curve]	–
CCOC(=O)N1CCN(C(=O)c2oc3ccc(S(=O)(=O)N4CC(C)CC(C)C4)cc3c2C)CC1 (stereo unspecified)	inconclusive: 22.4 µM [inhibitor, partial curve]	–
NCCCC[C@H](N)c1nnc([C@H](CCC(=O)O)NC(=O)C2CCNCC2)o1	–	inactive: -9.2% [at 9.22 µM]
C#CCOC(=O)CCC(=O)NCCc1ccccc1	–	inactive: 2.9%
COCCNC(=O)Cn1c(=O)n(CCCCCC(=O)Nc2ccccc2)c(=O)c2sccc21	inconclusive: 2.82 µM [activator, partial curve]	–
CCOCCCN(Cc1ccco1)C(=O)c1cc2c(=O)[nH]c3ccc(C)cc3c2s1	–	inactive: -6.83%
Cc1cc(N/N=C/c2ccc(O)c(C)c2O)nc(-c2ccccc2O)n1	active: 15.8 µM	–
COc1ccc(N(CC(=O)N2CCc3ccccc3C2)S(C)(=O)=O)cc1	–	inactive: 20.6%
O=C(c1ccccc1)c1nc2ccccc2n(CCCn2c(=O)c(C(=O)c3ccccc3)nc3ccccc32)c1=O	inconclusive: 22.4 µM [inhibitor, single point]	–
C=CCNC(=O)c1cc(Cl)ccc1[N+](=O)[O-]	–	inactive: 9.28%
CCc1ccccc1Nc1ccc(C(=O)O)cc1N	–	inactive: 13.4%
COc1cccc(C2CC(c3ccc(C)cc3)Nc3nc(N)nn32)c1 (stereo unspecified)	inconclusive: 0.631 µM [activator, single point]	–

SMILES	Potency	activity change, negative = inhibition
O=C(N/N=C/c1ccc([N+](=O)[O-])s1)c1cccc(Br)c1	inconclusive: 35.5 µM [inhibitor, single point]	–
Cc1ccc(-n2c(SCC(=O)NCC3CCCO3)nc3n[nH]c(C)c3c2=N)cc1Cl (stereo unspecified)	inconclusive: 3.55 µM [activator, single point]	–
Cc1nc(N2CCOCC2)c2c(C)c(C(=O)Nc3ccc(C(F)(F)F)cc3)sc2n1	inconclusive: 20 µM [inhibitor, partial curve]	–
Cc1cccnc1CN1CCN(Cc2nc(Cc3cccc(F)c3)no2)CC1	–	inactive: 16.5%
COC(=O)N/N=C/c1cc(C)n(-c2ccc(F)cc2)c1C	–	inactive: 0.219%
O=[N+]([O-])c1ccc(N2CCN(C(=S)NC3CCCCC3)CC2)cc1	inconclusive: 35.5 µM [inhibitor, single point]	–
COc1cc(-c2nnc(-c3ccccc3)o2)cc(OC)c1OC	–	inactive: 11.5%
O=C(Nc1ccccc1)N1CCN(c2ccc(C(F)(F)F)cn2)CC1	inconclusive: 10 µM [inhibitor, partial curve]	–
c1ccc2c(C3=NNC(=NC4CCCCC4)SC3)c[nH]c2c1	inconclusive: 15.8 µM [inhibitor, single point]	–
CCn1c(=O)cc(SCC(=O)N2CCCCC2)c2ccccc21	inconclusive: 0.562 µM [activator, full curve, poor fit]	–
CN(C)c1cc[n+](Cc2ccccc2)cc1	active: 7.08 µM	–
O=C(NCc1cccnc1)c1cccnc1-c1nc2ccccc2s1	–	inactive: -3.86%
Cc1ccc(C(=O)CC(=O)c2cccc(F)c2)c(O)c1	active: 22.4 µM	–
Cc1ccc(Nc2nc(N3CCOCC3)c3ccccc3n2)cc1	inconclusive: 10 µM [inhibitor, partial curve]	–
Cc1cc(/C=N/Nc2ccc([N+](=O)[O-])cn2)c(C)n1-c1ccc(C(=O)O)cc1	–	inactive: -16.1%
Cc1cccc(N(C(=O)C(F)(F)F)C(C(=O)NC2CCCCC2)c2cccs2)c1 (stereo unspecified)	–	inactive: 14.1%
O=C(NC(=S)NNC(=O)[C@H]1C[C@@H]1c1ccccc1)c1ccc(F)cc1	–	inactive: -5.96% [at 9.22 µM]
Cc1ccc(S(=O)(=O)Cn2nnnc2CN2CCCC3(CCCCC3)C2)cc1	inconclusive: 35.5 µM [inhibitor, single point]	–
Cc1cccn2cc(CCNC(=O)c3ccc(Br)o3)nc12	inconclusive: 5.62 µM [inhibitor, single point]	–
Cc1ccc(Nc2nc(N)nc(-c3oc4ccccc4c3C)n2)cc1	inconclusive: 0.398 µM [inhibitor, full curve]	–
C=CSc1sc(Cl)c(N(C)C)c1[N+](=O)[O-]	inconclusive: 0.891 µM [inhibitor, single point]	–
N#CC1=C(N)OC2=C(C(=O)CCC2)C1C1CC=CCC1 (stereo unspecified)	inconclusive: 3.55 µM [inhibitor, partial curve]	–
O=C(CSc1n[nH]c(=O)[nH]c1=O)c1ccc([N+](=O)[O-])cc1	–	inactive: -1.36% [at 9.22 µM]

Looked up one by one from above:
SMILES	Potency	activity change, negative = inhibition
O=C1C(=O)c2ccc(-c3ccccc3)cc2-c2ccccc21	active: 4.47 µM	–
Cc1ccc(-n2c(SCC(=O)NCC3CCCO3)nc3n[nH]c(C)c3c2=N)cc1Cl (stereo unspecified)	inconclusive: 3.55 µM [activator, single point]	–
